Measurements reported in PubChem BioAssay AID493014 (National Center for Advancing Translational Sciences (NCATS), 2011).
Some of the results follow. Further columns of the screen follow, without active or inactive calls. Compounds called inactive in the main read-out are mostly missing here. Words in brackets tell the shape of the fitted curve; partial curves, single points and poor fits give uncertain potencies.

Assay: qHTS Assay to Find Inhibitors of Chronic Active B-Cell Receptor Signaling
Conditions: ABC-DLBCL IkBa-CBG/CBR reporter, luminescence ratio (green luciferase fused to IkBa over red control in TMD8 lymphoma cells), 4 h
Outline: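 Cell line TMD8 (human ABC DLBCL), stably expressing tet-inducible CBG68-IkBa fusion and CBR; IMDM/0.5% FBS; cpd up to 46 uM; dox induction, 4 h, 37C/5% CO2; dual luminescence; green/red ratio; MG132 control.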

[1] = measured here: CBR red luminescence, cell number
[2] = measured here: IkBa-CBG green luminescence

SMILES | AC50 [1] | AC50 [2]
CCN(CC)C(=O)Cn1c(=O)n(-c2ccccc2)c(=O)c2c3c(sc21)CCC3 | 0.184 µM [rising, full curve, poor fit] | –
CC(C)N=C(N)N=C(N)Nc1ccc(Cl)cc1 | 10.3 µM [falling, partial curve, poor fit] | –
Cc1csc(NC(=O)CSc2nc(=O)[nH]c3c2CCCC3)n1 | 35.5 µM [falling, single point] | –
Cc1ccc(C(CCN)c2ccco2)cc1 (stereo not drawn) | 23.1 µM [rising, single point] | –
CCNC(=S)NN=C1CCC(C(C)(C)C)CC1 (stereo not drawn) | 2.31 µM [falling, partial curve, poor fit] | –
O=C(CO/N=C/c1cccc([N+](=O)[O-])c1)Nc1ccc2ccccc2c1 | 29.1 µM [falling, single point] | 32.6 µM [rising, partial curve, poor fit]
COC(=O)C1=NN(C(=O)c2ccc(Br)cc2)C(O)(C(C)(C)C)C1 (stereo not drawn) | 7.08 µM [falling, partial curve] | –
CC(C)Cn1c(N)c(C(=O)COC(=O)c2cc3ccccc3cc2O)c(=O)n(C)c1=O | 1.03 µM [rising, single point] | –
COc1ccc(OC(C)C(=O)NCCc2nc3ccccc3[nH]2)cc1 (stereo not drawn) | 3.66 µM [rising, partial curve, poor fit] | –
COC(=O)c1ccc(C2=NOC(C)(c3sc(-c4ccccc4)nc3C)C2)cc1 (stereo not drawn) | 10 µM [rising, partial curve, poor fit] | –
COc1cc(-c2nc(N)n[nH]2)cc(OC)c1OC | 10 µM [rising, partial curve] | –
Cc1ccc(/C=C/C(=O)NCCc2c[nH]c3ccccc23)o1 | 22.4 µM [falling, single point] | –
COc1cc(/C=N/NC(=O)c2cn(-c3cccc(C)n3)cn2)ccc1O | 6.31 µM [falling, partial curve, poor fit] | –
c1ccc2c(c1)NC(c1ccncc1)n1c-2nc2ccccc21 (stereo not drawn) | 5.62 µM [falling, partial curve] | –
O=Cc1c[nH]c2ccc(S(=O)(=O)N3CCOCC3)cc12 | 16.4 µM [rising, single point] | –
O=C(Nc1cc(-c2ccccc2)[nH]n1)c1ccccc1F | 1.26 µM [falling, full curve] | –
C/C(=N\NC(=O)COc1ccccc1[N+](=O)[O-])c1cccs1 | 14.1 µM [falling, single point] | –
O=C(Nc1ccccc1C(=O)NCCN1CCOCC1)c1cccc([N+](=O)[O-])c1 | 14.1 µM [falling, single point] | –
CCC(CC)C(=O)Nc1cccc(C(=O)Nc2nccs2)c1 | 12.6 µM [falling, single point] | –
CCn1c(C)c(C(C)=O)c(N2CCN(c3cccc(Cl)c3)CC2)nc1=S | 16.4 µM [falling, single point] | –
Cc1cccc(NC(=O)c2sc3nc(N)c(C#N)cc3c2N)c1 | 23.1 µM [falling, partial curve] | 25.9 µM [rising, partial curve, poor fit]

SMILES | AC50 [1] | AC50 [2]
Cc1nc2ccc(N=NN(C)C)cc2[nH]1 | 8.91 µM [falling, partial curve, poor fit] | –
COc1ccc2c(c1)Cc1sc(NC(=O)c3cccc(Br)c3)nc1-2 | 1.12 µM [rising, partial curve, poor fit] | –
COc1cc(CCC(=O)OCC(=O)NC(=O)c2ccc(Cl)cc2)cc(OC)c1OC | 10 µM [rising, single point] | –
Cc1c(NC(=O)CSc2ncnc3c2cnn3-c2ccccc2)c(=O)n(-c2ccccc2)n1C | 20.6 µM [falling, partial curve, poor fit] | –
CCOC(=O)Cc1c(C)nc2cc(-c3ccc(Cl)cc3)[nH]n2c1=O | 6.51 µM [falling, full curve] | –
Cc1ccccc1NC(=O)c1nc[nH]c1C(=O)NCc1ccccc1 | 29.1 µM [rising, single point] | –
CCCc1cc(=O)c2c(O)ccc(OC)c2o1 | 35.5 µM [rising, single point] | –
COc1ccccc1NS(=O)(=O)c1cc(C(=O)NCC(c2ccco2)N2CCCCC2)ccc1C (stereo not drawn) | 29.1 µM [falling, single point] | –
CC(=O)c1cc(C#N)c(SCc2ccccn2)nc1C | 10 µM [rising, partial curve, poor fit] | –
O=C(NN1C(=O)c2ccccc2NC1c1ccoc1)c1ccccc1 (stereo not drawn) | 35.5 µM [rising, single point] | –
COc1ccc(-n2cnc(N)c2C(=O)c2cccc([N+](=O)[O-])c2)cc1 | 11.6 µM [falling, partial curve, poor fit] | –
Cc1ccc(NC(=O)Cc2ccc(-c3ccccc3)cc2)nc1 | 14.1 µM [rising, single point] | –
COc1cccc2oc3cc(C#Cc4ccccn4)ccc3c(=O)c12 | 11.2 µM [falling, single point] | –
COc1ccc(C(=O)NCC(=O)OCc2ccc(Br)cc2)cc1 | 18.4 µM [rising, partial curve, poor fit] | –
CCn1c(SCC(=O)Nc2nnc(C)s2)nc2c(c1=O)SC(C)C2 (stereo not drawn) | 0.58 µM [falling, partial curve, poor fit] | –
CSc1nnc(-c2sccc2-n2cccc2)o1 | 14.1 µM [rising, single point] | –
CC1CCN(c2ccc(C(=O)NCCc3ccccc3)cn2)CC1 | 6.31 µM [rising, single point] | –
COc1ccc(C(=O)NCC(=O)NCC(=O)OCc2ccc(Cl)cc2)cc1 | 35.5 µM [rising, single point] | –
O=C(Nc1cc(Sc2ccccn2)cc([N+](=O)[O-])c1)c1cccc(F)c1 | 5.17 µM [rising, partial curve, poor fit] | –
COc1coc(C(O)CN)cc1=O (stereo not drawn) | 9.2 µM [rising, partial curve, poor fit] | –
CN(CC(=O)Nc1cccc(F)c1)C(=O)c1cccc(S(=O)(=O)N2CC3(C)CC2CC(C)(C)C3)c1 (stereo not drawn) | 25.9 µM [falling, partial curve] | –

SMILES | AC50 [1] | AC50 [2]
COc1cccc(C(=O)Nc2ccc(NC(=O)c3ccco3)c(Cl)c2)c1 | 7.94 µM [falling, full curve, poor fit] | –
COc1ccc(C2CC(O)(c3ccccc3)Oc3cc(OC)cc(OC)c32)cc1 (stereo not drawn) | 25.1 µM [falling, single point] | 35.5 µM [rising, partial curve, poor fit]
COc1ccc(C(=O)Oc2cc(OC)cc(OC)c2C(C)=O)cc1 | 20.6 µM [rising, partial curve, poor fit] | –
O=C(Nc1nc2ccccc2[nH]1)c1ccc(F)c(S(=O)(=O)N2CCOCC2)c1 | 10.3 µM [falling, partial curve] | –
COc1cccc(Cn2nnc(C(=O)NCc3ccccc3Cl)c2N)c1 | 3.66 µM [falling, full curve, poor fit] | –
O=C(O)c1ccc(O)c(N2C(=O)Nc3ccccc3N2O)c1 | 20.6 µM [falling, partial curve, poor fit] | –
O=C(Nc1cccc(-n2cnnn2)c1)C1CCCN(Cc2cccc(C(F)(F)F)c2)C1 (stereo not drawn) | 12.6 µM [falling, partial curve, poor fit] | –
Cc1cc(OCC(=O)OC(C)C(=O)Nc2ccc(N3CCOCC3)cc2)ccc1Cl (stereo not drawn) | 5.8 µM [rising, full curve, poor fit] | –
Cc1c(C(=O)N2CCOCC2)oc2ccc(Br)cc12 | 29.1 µM [rising, single point] | –
COc1ccccc1-n1cnc2cc(NCc3ccco3)ccc21 | 12.6 µM [falling, partial curve] | 25.1 µM [falling, single point]
Cc1c(C(=O)Nc2ccccn2)sc2nc3n(c(=O)c12)CCC3 | 35.5 µM [falling, single point] | –
CN(C)c1cc(N/N=C\c2ccccc2)nc(N(C)C)n1 | 0.447 µM [rising, full curve, poor fit] | –
CCCC(C)NC(=O)c1ccc(C2SCC(=O)N2Cc2ccco2)cc1 (stereo not drawn) | 0.0651 µM [rising, full curve, poor fit] | 2.91 µM [falling, partial curve, poor fit]
CC(C)[C@@H](C(=O)NC1CC1)N1C(=O)N2CCc3c([nH]c4ccccc34)[C@@]2(C)C1=O | 14.1 µM [falling, partial curve, poor fit] | –
c1ccc2[nH]c(SCc3cscn3)nc2c1 | 4.11 µM [rising, partial curve, poor fit] | –
COc1cc(C(=O)Nc2ccc3nc4n(c(=O)c3c2)CCCCC4)cc(OC)c1OC | 14.1 µM [falling, partial curve, poor fit] | –
CCOC(=O)c1ccoc1CSCc1ccc(C(=O)OC)o1 | 0.731 µM [rising, partial curve, poor fit] | –
O=C1CCCN1c1ccc(Br)cc1 | 32.6 µM [rising, single point] | –
CCOC(=O)CNS(=O)(=O)c1c(C)noc1C | 2.06 µM [falling, partial curve, poor fit] | –
CCN(CC)C1CCN(C(=O)c2cc(COc3ccccc3SC)on2)C1 (stereo not drawn) | 0.251 µM [rising, full curve, poor fit] | –
COc1ccc(O)c(CNc2ccccc2F)c1 | – | 35.5 µM [falling, partial curve, poor fit]

4 consecutive entries from above:
SMILES | AC50 [1] | AC50 [2]
COc1ccc(C(=O)Oc2cc(OC)cc(OC)c2C(C)=O)cc1 | 20.6 µM [rising, partial curve, poor fit] | –
O=C(Nc1nc2ccccc2[nH]1)c1ccc(F)c(S(=O)(=O)N2CCOCC2)c1 | 10.3 µM [falling, partial curve] | –
COc1cccc(Cn2nnc(C(=O)NCc3ccccc3Cl)c2N)c1 | 3.66 µM [falling, full curve, poor fit] | –
O=C(O)c1ccc(O)c(N2C(=O)Nc3ccccc3N2O)c1 | 20.6 µM [falling, partial curve, poor fit] | –
